From the supplement of paper PMC12823440, “Inhibitors supercharge kinase turnover through native proteolytic circuits” (Nature, 2025)
The list shows a part of the results. The calls rarely recur for the same compound in another form.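 Kinases, fused to nanoluciferase, were expressed in K562 cells; luminescence was measured every 4 h from 2 to 18 h as percent of control (DMSO = 100%, positive control = 0%). A time point is decreased if signal falls significantly (2 sigma). Hits were called by the authors by a rule that is not shown; the count of time points alone does not decide it.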

Protein sequences, listed by entry. Tags and fused reporters are not part of them. Lines headed by an entry give the natural chain unless they say otherwise; changes in a name come on top.
UniProt P49137, whole entry, looked up: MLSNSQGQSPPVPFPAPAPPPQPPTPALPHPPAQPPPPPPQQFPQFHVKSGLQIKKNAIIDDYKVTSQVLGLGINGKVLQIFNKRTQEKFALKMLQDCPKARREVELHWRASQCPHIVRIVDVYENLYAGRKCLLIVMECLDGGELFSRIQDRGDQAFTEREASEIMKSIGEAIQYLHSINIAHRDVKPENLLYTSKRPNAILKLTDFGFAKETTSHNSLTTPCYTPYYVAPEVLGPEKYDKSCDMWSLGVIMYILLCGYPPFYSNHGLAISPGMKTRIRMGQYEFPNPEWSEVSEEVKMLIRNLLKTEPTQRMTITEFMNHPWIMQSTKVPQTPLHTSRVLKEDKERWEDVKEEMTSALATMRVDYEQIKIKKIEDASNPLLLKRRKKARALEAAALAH
UniProt Q9BUB5: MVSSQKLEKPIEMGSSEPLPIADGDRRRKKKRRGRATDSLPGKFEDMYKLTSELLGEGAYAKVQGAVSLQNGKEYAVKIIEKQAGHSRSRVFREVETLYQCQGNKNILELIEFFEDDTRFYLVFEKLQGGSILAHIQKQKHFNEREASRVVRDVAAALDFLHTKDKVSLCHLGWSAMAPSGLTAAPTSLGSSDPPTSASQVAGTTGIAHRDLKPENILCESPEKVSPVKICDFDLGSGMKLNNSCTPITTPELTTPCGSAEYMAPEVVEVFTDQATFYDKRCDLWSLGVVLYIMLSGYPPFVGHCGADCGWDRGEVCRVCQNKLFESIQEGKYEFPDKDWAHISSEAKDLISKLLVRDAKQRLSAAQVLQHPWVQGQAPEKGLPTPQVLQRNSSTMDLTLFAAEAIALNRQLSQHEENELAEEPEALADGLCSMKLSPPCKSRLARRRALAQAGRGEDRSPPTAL
UniProt Q16620, whole entry, looked up: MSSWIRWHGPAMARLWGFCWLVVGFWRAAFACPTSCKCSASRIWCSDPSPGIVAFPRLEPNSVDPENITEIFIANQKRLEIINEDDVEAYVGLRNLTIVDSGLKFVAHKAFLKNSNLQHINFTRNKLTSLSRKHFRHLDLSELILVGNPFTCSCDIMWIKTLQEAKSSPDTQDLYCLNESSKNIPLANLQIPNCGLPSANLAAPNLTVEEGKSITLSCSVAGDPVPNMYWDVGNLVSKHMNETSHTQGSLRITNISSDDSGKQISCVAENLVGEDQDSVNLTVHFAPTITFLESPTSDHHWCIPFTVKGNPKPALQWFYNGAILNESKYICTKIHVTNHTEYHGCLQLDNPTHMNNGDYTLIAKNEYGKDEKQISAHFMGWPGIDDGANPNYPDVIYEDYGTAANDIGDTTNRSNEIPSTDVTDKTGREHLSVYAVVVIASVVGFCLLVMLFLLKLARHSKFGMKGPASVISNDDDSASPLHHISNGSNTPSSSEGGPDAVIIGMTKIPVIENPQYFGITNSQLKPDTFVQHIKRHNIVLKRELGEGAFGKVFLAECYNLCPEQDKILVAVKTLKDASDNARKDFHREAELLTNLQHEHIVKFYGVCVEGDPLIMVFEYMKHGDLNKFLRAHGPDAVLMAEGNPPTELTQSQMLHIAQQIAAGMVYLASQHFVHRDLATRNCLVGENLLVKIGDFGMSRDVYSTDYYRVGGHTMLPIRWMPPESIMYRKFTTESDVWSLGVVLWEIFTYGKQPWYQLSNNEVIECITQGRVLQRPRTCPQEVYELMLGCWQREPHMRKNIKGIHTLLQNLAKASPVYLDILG
UniProt O96013: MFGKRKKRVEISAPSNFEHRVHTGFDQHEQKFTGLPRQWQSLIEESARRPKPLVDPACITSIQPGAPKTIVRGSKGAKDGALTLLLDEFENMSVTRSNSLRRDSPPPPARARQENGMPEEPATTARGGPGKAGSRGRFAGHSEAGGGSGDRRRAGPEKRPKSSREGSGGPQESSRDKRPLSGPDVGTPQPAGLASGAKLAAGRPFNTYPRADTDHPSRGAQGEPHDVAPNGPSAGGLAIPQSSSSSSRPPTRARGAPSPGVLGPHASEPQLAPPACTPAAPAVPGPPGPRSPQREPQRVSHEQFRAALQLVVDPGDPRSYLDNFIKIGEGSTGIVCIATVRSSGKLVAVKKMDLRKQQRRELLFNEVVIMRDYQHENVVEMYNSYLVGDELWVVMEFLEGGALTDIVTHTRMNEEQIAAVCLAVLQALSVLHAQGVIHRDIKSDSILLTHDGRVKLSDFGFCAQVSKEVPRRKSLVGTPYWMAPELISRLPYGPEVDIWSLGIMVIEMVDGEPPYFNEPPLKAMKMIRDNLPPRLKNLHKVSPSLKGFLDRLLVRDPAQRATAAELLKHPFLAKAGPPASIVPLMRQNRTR
UniProt Q96KB5: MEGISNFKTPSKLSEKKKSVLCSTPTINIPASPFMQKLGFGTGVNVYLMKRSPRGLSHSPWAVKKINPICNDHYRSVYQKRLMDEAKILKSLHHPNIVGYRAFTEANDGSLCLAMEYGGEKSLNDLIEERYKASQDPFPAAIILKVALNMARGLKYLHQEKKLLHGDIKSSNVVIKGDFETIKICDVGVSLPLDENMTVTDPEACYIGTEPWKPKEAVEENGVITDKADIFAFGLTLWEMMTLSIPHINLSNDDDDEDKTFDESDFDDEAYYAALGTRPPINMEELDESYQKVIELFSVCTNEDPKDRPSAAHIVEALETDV
UniProt P09619, whole entry: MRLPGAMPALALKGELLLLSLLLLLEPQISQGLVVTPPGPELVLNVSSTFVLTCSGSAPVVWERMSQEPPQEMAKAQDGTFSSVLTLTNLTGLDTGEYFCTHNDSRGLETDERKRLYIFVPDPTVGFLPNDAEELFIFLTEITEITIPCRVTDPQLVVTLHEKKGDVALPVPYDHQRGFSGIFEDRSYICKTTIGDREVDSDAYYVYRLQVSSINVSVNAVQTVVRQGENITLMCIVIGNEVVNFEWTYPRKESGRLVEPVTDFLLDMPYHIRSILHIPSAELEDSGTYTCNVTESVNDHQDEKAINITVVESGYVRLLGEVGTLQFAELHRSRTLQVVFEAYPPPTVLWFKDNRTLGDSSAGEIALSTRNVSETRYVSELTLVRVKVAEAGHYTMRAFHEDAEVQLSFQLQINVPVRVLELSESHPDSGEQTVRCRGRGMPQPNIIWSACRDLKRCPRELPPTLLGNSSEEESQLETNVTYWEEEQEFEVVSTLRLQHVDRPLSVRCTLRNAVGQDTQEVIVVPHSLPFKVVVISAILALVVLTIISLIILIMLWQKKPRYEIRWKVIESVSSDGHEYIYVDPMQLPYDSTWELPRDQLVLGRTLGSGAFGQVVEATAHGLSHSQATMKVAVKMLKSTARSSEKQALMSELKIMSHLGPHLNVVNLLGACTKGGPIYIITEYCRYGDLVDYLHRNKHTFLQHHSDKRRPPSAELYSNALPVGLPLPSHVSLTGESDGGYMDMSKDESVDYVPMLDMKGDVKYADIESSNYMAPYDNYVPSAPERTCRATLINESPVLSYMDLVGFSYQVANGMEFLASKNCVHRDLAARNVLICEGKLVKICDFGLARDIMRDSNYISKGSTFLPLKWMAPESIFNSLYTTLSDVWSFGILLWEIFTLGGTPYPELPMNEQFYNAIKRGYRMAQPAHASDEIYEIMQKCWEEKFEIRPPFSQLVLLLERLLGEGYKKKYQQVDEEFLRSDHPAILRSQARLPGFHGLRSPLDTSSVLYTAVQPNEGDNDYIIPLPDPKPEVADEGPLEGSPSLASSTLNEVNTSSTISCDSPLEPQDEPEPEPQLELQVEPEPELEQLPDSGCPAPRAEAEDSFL
UniProt Q15118, whole entry, looked up: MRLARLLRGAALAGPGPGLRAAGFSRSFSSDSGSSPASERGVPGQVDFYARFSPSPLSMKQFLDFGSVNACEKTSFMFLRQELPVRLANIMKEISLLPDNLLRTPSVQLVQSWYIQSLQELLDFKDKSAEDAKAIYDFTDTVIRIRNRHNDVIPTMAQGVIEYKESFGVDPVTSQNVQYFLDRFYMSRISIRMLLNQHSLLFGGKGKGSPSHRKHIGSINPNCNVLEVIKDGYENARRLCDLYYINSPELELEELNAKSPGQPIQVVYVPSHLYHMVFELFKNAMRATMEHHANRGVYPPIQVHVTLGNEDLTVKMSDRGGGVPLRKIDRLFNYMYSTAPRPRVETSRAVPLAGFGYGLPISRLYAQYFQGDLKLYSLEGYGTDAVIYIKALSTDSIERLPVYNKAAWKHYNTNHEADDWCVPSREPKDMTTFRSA
UniProt O15530: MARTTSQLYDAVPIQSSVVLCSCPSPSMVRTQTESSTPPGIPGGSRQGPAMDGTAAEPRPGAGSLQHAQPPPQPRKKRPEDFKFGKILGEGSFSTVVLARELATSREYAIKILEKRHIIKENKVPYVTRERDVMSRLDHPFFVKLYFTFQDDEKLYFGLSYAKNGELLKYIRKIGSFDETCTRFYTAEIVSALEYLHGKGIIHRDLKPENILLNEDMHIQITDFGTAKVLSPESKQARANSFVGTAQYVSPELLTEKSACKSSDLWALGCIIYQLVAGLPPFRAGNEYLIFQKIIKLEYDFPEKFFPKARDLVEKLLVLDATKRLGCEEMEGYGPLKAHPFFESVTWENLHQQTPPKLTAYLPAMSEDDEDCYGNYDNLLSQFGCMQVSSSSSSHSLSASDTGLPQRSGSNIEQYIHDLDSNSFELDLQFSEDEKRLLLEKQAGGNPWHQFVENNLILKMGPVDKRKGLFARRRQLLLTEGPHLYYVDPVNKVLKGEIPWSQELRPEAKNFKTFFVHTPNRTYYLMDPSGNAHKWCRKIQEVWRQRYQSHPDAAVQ
UniProt P53350, whole entry: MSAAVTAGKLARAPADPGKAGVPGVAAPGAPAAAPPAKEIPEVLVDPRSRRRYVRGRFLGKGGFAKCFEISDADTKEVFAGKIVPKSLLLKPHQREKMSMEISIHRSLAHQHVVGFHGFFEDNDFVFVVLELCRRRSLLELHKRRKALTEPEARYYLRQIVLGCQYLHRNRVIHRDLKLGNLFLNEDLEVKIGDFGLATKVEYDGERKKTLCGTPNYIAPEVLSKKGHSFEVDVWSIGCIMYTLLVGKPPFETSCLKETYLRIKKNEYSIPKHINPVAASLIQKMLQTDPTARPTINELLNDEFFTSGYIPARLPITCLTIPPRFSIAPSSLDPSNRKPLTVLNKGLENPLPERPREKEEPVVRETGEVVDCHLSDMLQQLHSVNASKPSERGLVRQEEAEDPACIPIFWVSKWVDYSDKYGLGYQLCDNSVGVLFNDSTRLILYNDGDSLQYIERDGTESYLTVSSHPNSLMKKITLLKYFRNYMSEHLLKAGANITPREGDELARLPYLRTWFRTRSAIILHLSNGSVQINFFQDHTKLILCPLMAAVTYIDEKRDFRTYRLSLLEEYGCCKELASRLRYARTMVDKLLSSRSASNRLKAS
UniProt Q05397, whole entry, looked up: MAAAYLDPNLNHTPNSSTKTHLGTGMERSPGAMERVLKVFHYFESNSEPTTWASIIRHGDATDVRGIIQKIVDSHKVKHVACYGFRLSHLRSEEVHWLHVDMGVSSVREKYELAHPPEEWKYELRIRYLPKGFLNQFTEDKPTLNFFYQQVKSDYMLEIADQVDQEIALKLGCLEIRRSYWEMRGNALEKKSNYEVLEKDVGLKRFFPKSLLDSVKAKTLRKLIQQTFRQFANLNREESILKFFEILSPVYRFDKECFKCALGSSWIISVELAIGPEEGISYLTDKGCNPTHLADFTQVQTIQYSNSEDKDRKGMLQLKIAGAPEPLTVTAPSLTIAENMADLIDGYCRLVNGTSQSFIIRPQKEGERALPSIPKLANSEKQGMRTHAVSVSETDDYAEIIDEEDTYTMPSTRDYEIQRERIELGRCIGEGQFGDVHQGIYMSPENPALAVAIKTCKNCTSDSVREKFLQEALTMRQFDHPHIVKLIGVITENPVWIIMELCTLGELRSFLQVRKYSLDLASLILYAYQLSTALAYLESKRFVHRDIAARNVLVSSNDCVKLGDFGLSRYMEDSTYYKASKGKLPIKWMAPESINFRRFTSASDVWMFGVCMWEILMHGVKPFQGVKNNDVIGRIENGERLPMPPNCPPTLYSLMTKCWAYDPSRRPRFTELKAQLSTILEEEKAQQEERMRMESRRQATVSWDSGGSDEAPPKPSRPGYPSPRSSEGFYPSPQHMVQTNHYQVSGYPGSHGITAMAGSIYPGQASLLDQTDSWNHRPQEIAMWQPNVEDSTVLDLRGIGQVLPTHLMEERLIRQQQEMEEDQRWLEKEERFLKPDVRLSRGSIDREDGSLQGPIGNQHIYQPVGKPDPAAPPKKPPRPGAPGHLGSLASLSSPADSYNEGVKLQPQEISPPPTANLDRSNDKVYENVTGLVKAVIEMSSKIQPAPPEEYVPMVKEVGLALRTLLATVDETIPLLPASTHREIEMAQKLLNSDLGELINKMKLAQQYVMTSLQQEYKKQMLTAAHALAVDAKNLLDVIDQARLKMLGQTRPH

How the values were obtained:
Experiment in all cases: kinase-Nluc reporter destabilization hit call (1 = scored as downregulated) (binary); higher = compound decreases kinase abundance
Conditions in all cases: K562; 2-18 h
MAPK1 = MAPK1 (UniProt P28482)
MAPK4 = MAPK4 (UniProt P31152)
MAPKAPK2 = MAPKAPK2 (UniProt P49137)
MKNK1 = MKNK1 (UniProt Q9BUB5)
NTRK2 = NTRK2 (UniProt Q16620)
NTRK3 = NTRK3 (UniProt Q16288)
PAK4 = PAK4 (UniProt O96013)
PBK = PBK (UniProt Q96KB5)
PDGFRB = PDGFRB (UniProt P09619)
PDK1 = PDK1 (UniProt Q15118)
PDPK1 = PDPK1 (UniProt O15530)
PIK4CA = PIK4CA (UniProt P42356)
PIK4CB = PIK4CB (UniProt Q9UBF8)
PLK1 = PLK1 (UniProt P53350)
PRKAA1 = PRKAA1 (UniProt Q13131)
PRKCA = PRKCA (UniProt P17252)
PTK2 = PTK2 (UniProt Q05397)
PTK2B = PTK2B (UniProt Q14289)
RAF1 = RAF1 (UniProt P04049)
[1] = biological target: RAF1_S257L (clone: RAF1_mut) (UniProt P04049)

Measured: kinase-Nluc reporter destabilization hit call

COc1ccc(Cl)cc1NC(=O)Nc1cc(C)nc2ccccc12 (2.5 µM)
inactive: MAPK1 = 0 | MAPK4 = 0 | MAPKAPK2 = 0 | MKNK1 = 0 | NTRK2 = 0 | NTRK3 = 0 | PAK4 = 0 | PBK 0 | PDGFRB 0 | PDK1 = 0 | PDPK1 = 0 | PIK4CA 0 | PIK4CB 0 | PLK1 = 0 | PRKAA1 = 0 | PRKCA 0 | PTK2 = 0 | PTK2B 0 | RAF1 = 0 | [1] 0

Fc1ccc(-c2nc(-c3c(F)cccc3F)[nH]c2-c2ccncc2)cc1 (10 µM)
inactive: MAPK1 = 0 | MAPK4 = 0 | MAPKAPK2 = 0 | MKNK1 = 0 | NTRK2 = 0 | NTRK3 = 0 | PAK4 = 0 | PBK 0 | PDGFRB 0 | PDK1 = 0 | PDPK1 = 0 | PIK4CA 0 | PIK4CB 0 | PLK1 = 0 | PRKAA1 = 0 | PRKCA 0 | PTK2 = 0 | PTK2B 0 | RAF1 = 0 | [1] 0

CCN1CCN(Cc2ccc(Nc3ncc(F)c(-c4cc(F)c5nc(CO)n(C(C)C)c5c4)n3)nc2)CC1 [Abemaciclib metabolite M20] (2 µM)
inactive: MAPK1 = 0 | MAPK4 = 0 | MAPKAPK2 = 0 | MKNK1 = 0 | NTRK2 = 0 | NTRK3 = 0 | PAK4 = 0 | PBK 0 | PDGFRB 0 | PDK1 = 0 | PDPK1 = 0 | PIK4CA 0 | PIK4CB 0 | PLK1 = 0 | PRKAA1 = 0 | PRKCA 0 | PTK2 = 0 | PTK2B 0 | RAF1 = 0 | [1] 0

O=C1c2ccc(Nc3ccc(F)cc3F)cc2CCc2ccc(OC[C@H](O)CO)cc21 [Skepinone-L] (2.5 µM)
inactive: MAPK1 = 0 | MAPK4 = 0 | MAPKAPK2 = 0 | MKNK1 = 0 | NTRK2 = 0 | NTRK3 = 0 | PAK4 = 0 | PBK 0 | PDGFRB 0 | PDK1 = 0 | PDPK1 = 0 | PIK4CA 0 | PIK4CB 0 | PLK1 = 0 | PRKAA1 = 0 | PRKCA 0 | PTK2 = 0 | PTK2B 0 | RAF1 = 0 | [1] 0

CN1CCN(c2ccc(Nc3ncc4nc(Nc5ccccc5)n([C@@H]5CCN(S(=O)(=O)C6CC6)C5)c4n3)cc2)CC1 (2.5 µM)
inactive: MAPK1 = 0 | MAPK4 = 0 | MAPKAPK2 = 0 | MKNK1 = 0 | NTRK2 = 0 | NTRK3 = 0 | PAK4 = 0 | PBK 0 | PDGFRB 0 | PDK1 = 0 | PDPK1 = 0 | PIK4CA 0 | PIK4CB 0 | PLK1 = 0 | PRKAA1 = 0 | PRKCA 0 | PTK2 = 0 | PTK2B 0 | RAF1 = 0 | [1] 0

CC(C)(NS(=O)(=O)c1ccc2c(Cl)cnc(N=C(N)N)c2c1)C(=O)O (10 µM)
inactive: MAPK1 = 0 | MAPK4 = 0 | MAPKAPK2 = 0 | MKNK1 = 0 | NTRK2 = 0 | NTRK3 = 0 | PAK4 = 0 | PBK 0 | PDGFRB 0 | PDK1 = 0 | PDPK1 = 0 | PIK4CA 0 | PIK4CB 0 | PLK1 = 0 | PRKAA1 = 0 | PRKCA 0 | PTK2 = 0 | PTK2B 0 | RAF1 = 0 | [1] 0

COc1cc(N2CCN(C)CC2)ccc1Nc1ncc2c(n1)N(C1CCC1)C(=O)N(c1c(C)cccc1C)C2 (2.5 µM)
inactive: MAPK1 = 0 | MAPK4 = 0 | MAPKAPK2 = 0 | MKNK1 = 0 | NTRK2 = 0 | NTRK3 = 0 | PAK4 = 0 | PBK 0 | PDGFRB 0 | PDK1 = 0 | PDPK1 = 0 | PIK4CA 0 | PIK4CB 0 | PLK1 = 0 | PRKAA1 = 0 | PRKCA 0 | PTK2 = 0 | PTK2B 0 | RAF1 = 0 | [1] 0

N#Cc1ccc2ncnc(NC3CCC(N4CCOCC4)CC3)c2c1 (stereo not given) (10 µM)
inactive: MAPK1 = 0 | MAPK4 = 0 | MAPKAPK2 = 0 | MKNK1 = 0 | NTRK2 = 0 | NTRK3 = 0 | PAK4 = 0 | PBK 0 | PDGFRB 0 | PDK1 = 0 | PDPK1 = 0 | PIK4CA 0 | PIK4CB 0 | PLK1 = 0 | PRKAA1 = 0 | PRKCA 0 | PTK2 = 0 | PTK2B 0 | RAF1 = 0 | [1] 0

Nc1ncc(-c2cccc(N3CCNCC3)c2)cc1C(=O)Nc1ccncc1 [PKC-iota inhibitor 1] (10 µM)
inactive: MAPK1 = 0 | MAPK4 = 0 | MAPKAPK2 = 0 | MKNK1 = 0 | NTRK2 = 0 | NTRK3 = 0 | PAK4 = 0 | PBK 0 | PDGFRB 0 | PDK1 = 0 | PDPK1 = 0 | PIK4CA 0 | PIK4CB 0 | PLK1 = 0 | PRKAA1 = 0 | PRKCA 0 | PTK2 = 0 | PTK2B 0 | RAF1 = 0 | [1] 0

Cc1cc(-c2cc(OC(=O)c3ccccc3)ccc2Cl)cc2nnc(Nc3ccc(OCCN4CCCC4)cc3)nc12 (0.5 µM)
inactive: MAPK1 = 0 | MAPK4 = 0 | MAPKAPK2 = 0 | MKNK1 = 0 | NTRK2 = 0 | NTRK3 = 0 | PAK4 = 0 | PBK 0 | PDGFRB 0 | PDK1 = 0 | PDPK1 = 0 | PIK4CA 0 | PIK4CB 0 | PLK1 = 0 | PRKAA1 = 0 | PRKCA 0 | PTK2 = 0 | PTK2B 0 | RAF1 = 0 | [1] 0

COCCOc1ccc(-c2cn(-c3ccccc3)c3nc[nH]c(=O)c23)cc1 (10 µM)
inactive: MAPK1 = 0 | MAPK4 = 0 | MAPKAPK2 = 0 | MKNK1 = 0 | NTRK2 = 0 | NTRK3 = 0 | PAK4 = 0 | PBK 0 | PDGFRB 0 | PDK1 = 0 | PDPK1 = 0 | PIK4CA 0 | PIK4CB 0 | PLK1 = 0 | PRKAA1 = 0 | PRKCA 0 | PTK2 = 0 | PTK2B 0 | RAF1 = 0 | [1] 0

CNc1nc(Nc2cnn(C3CCN(C4COC4)CC3F)c2Cl)ncc1C(F)(F)F (stereo not given) (10 µM)
inactive: MAPK1 = 0 | MAPK4 = 0 | MAPKAPK2 = 0 | MKNK1 = 0 | NTRK2 = 0 | NTRK3 = 0 | PAK4 = 0 | PBK 0 | PDGFRB 0 | PDK1 = 0 | PDPK1 = 0 | PIK4CA 0 | PIK4CB 0 | PLK1 = 0 | PRKAA1 = 0 | PRKCA 0 | PTK2 = 0 | PTK2B 0 | RAF1 = 0 | [1] 0

CC(C)(C)NC(=O)c1cncn1C1CCN(c2ccc(-c3nnc(C(F)(F)F)o3)cn2)CC1 (10 µM)
inactive: MAPK1 = 0 | MAPK4 = 0 | MAPKAPK2 = 0 | MKNK1 = 0 | NTRK2 = 0 | NTRK3 = 0 | PAK4 = 0 | PBK 0 | PDGFRB 0 | PDK1 = 0 | PDPK1 = 0 | PIK4CA 0 | PIK4CB 0 | PLK1 = 0 | PRKAA1 = 0 | PRKCA 0 | PTK2 = 0 | PTK2B 0 | RAF1 = 0 | [1] 0

Nc1nccc(Oc2ccc(NC(=O)c3cn(COP(=O)(O)O)cc(-c4ccc(F)cc4)c3=O)cc2F)c1Cl (10 µM)
inactive: MAPK1 = 0 | MAPK4 = 0 | MAPKAPK2 = 0 | MKNK1 = 0 | NTRK2 = 0 | NTRK3 = 0 | PAK4 = 0 | PBK 0 | PDGFRB 0 | PDK1 = 0 | PDPK1 = 0 | PIK4CA 0 | PIK4CB 0 | PLK1 = 0 | PRKAA1 = 0 | PRKCA 0 | PTK2 = 0 | PTK2B 0 | RAF1 = 0 | [1] 0
